Assay results as given in PubChem BioAssay AID256 (DTP/NCI, 2004).
The list does not hold the whole screen: it gathers tests that were run many times, whatever their T/C, doses with no T/C, and many T/C values between a quarter and a half above the control. Further doses and runs are listed elsewhere. T/C is the treated group as % of the vehicle group. Some entries give survivors of the animals treated and no T/C: the source holds a T/C of zero for them, seemingly a mark for toxic or unscored doses. Some survivor counts are full or nearly so, which does not show that the dose was tolerated: survival well below the control is almost never listed, so the zero probably covers shortened survival too. Counts of survivors are from the toxicity check (mostly the fifth day) where no day follows; animals may have died later. Schedules are NCI's codes, read here as Q, the interval in days (D) or hours (H), X, the number of doses. Some doses were run more than once; their values stand side by side, smallest first. Where survival is the endpoint, the PubChem record calls one and a half times the control and up active, and a quarter to a half above the control has no call in these data; cut-offs in other NCI protocols can differ. Some T/C values are followed by the survivors on the day toxicity was checked, most often the fifth; without a count, all were alive then. Counts like (3×) give the number of equal values in this list.

System: CD2F1 mice, L1210 leukemia ip, survival T/C
Assay: NCI In Vivo Anticancer Drug Screen. Data for tumor model L1210 Leukemia (intraperitoneal) in CD2F1 (CDF1) mice
Settings: higher T/C = longer survival
How it was run: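 Ratio T/C, where T is the treated-group value and C the vehicle-dosed control value, from mice implanted with a transplantable tumor.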

[1] = T/C endpoint: mean survival time, dose: 200.0 mg/kg/injection, schedule: Q01DX009 (ip), vehicle: saline with Tween-80
[2] = T/C endpoint: mean survival time, dose: 400.0 mg/kg/injection, schedule: Q01DX009 (ip), vehicle: saline with Tween-80
[3] = T/C endpoint: mean survival time, dose: 400.0 mg/kg/injection, schedule: Q04DX003 (ip), vehicle: saline
[4] = T/C endpoint: mean survival time, dose: 100.0 mg/kg/injection, schedule: Q04DX003 (ip), vehicle: saline with Tween-80
[5] = T/C endpoint: mean survival time, dose: 200.0 mg/kg/injection, schedule: Q04DX003 (ip), vehicle: saline with Tween-80
[6] = T/C endpoint: mean survival time, dose: 400.0 mg/kg/injection, schedule: Q04DX003 (ip), vehicle: saline with Tween-80
[7] = T/C endpoint: mean survival time, dose: 150.0 mg/kg/injection, schedule: Q01DX001 (ip), vehicle: saline
[8] = T/C endpoint: mean survival time, dose: 300.0 mg/kg/injection, schedule: Q01DX001 (ip), vehicle: saline
[9] = T/C endpoint: mean survival time, dose: 200.0 mg/kg/injection, schedule: Q01DX001 (ip), vehicle: saline
[10] = T/C endpoint: mean survival time, dose: 400.0 mg/kg/injection, schedule: Q01DX001 (ip), vehicle: saline
[11] = T/C endpoint: mean survival time, dose: 200.0 mg/kg/injection, schedule: Q01DX009 (ip), vehicle: saline sonified
[12] = T/C endpoint: mean survival time, dose: 100.0 mg/kg/injection, schedule: Q04DX002 (ip), vehicle: saline with Tween-80
[13] = T/C endpoint: mean survival time, dose: 400.0 mg/kg/injection, schedule: Q04DX002 (ip), vehicle: saline with Tween-80
[14] = T/C endpoint: mean survival time, dose: 200.0 mg/kg/injection, schedule: Q04DX002 (ip), vehicle: saline with Tween-80

With `Nc1nc(N)c(-c2ccc(Cl)c(Cl)c2)c(/C=C/C=C/c2cccnc2)n1` the T/C (T/C endpoint: mean survival time, dose: 25.0 mg/kg/injection, schedule: Q01DX009 (ip), vehicle: saline with Tween-80) was 136 % of control, the survivor count (T/C endpoint: mean survival time, dose: 100.0 mg/kg/injection, schedule: Q01DX009 (ip), vehicle: saline with Tween-80) was 6 of 6 and the survivor count [1] was 6 of 6. For the same molecule, the survivor count [2] was 0 of 6.
`COc1nc(NC(C)C)nc(NC(C)C)n1` was tested, and the survivor count [3] was 3 of 6.
In the case of `COc1ccc(CCc2nc(CCCCO)[nH]c2C)cc1OC`, the survivor count [1] was 0 of 6 and the survivor count [2] was 0 of 6.
In the case of `[N-]=[N+]=CC(=O)NCC(=O)NCCNCCO`, the T/C (T/C endpoint: mean survival time, dose: 200.0 mg/kg/injection, schedule: Q01DX009 (ip), vehicle: other) was 141 % of control.
With `ClCc1ccc(Cl)c(Cl)c1Cl` the survivor count [4] was 6 of 6, the survivor count [5] was 3 of 6 and the survivor count [6] was 0 of 6.
In the case of `OCCOCCN1CCN(CCCN2c3ccccc3Sc3ccc(C(F)(F)F)cc32)CC1`, the survivor count (T/C endpoint: mean survival time, dose: 12.5 mg/kg/injection, schedule: Q01DX009 (ip), vehicle: saline) was 6 of 6, the survivor count (T/C endpoint: mean survival time, dose: 25.0 mg/kg/injection, schedule: Q01DX009 (ip), vehicle: saline) was 0 of 6 and the T/C (T/C endpoint: mean survival time, dose: 75.0 mg/kg/injection, schedule: Q01DX001 (ip), vehicle: saline) was 132 % of control. The survivor count [7] was 0 of 6 and the survivor count [8] was 0 of 6.
With `O=[N+]([O-])c1ccc(C[n+]2ccccc2)cc1` the survivor count (T/C endpoint: mean survival time, dose: 100.0 mg/kg/injection, schedule: Q04DX003 (ip), vehicle: saline) was 0 of 6, the survivor count (T/C endpoint: mean survival time, dose: 200.0 mg/kg/injection, schedule: Q04DX003 (ip), vehicle: saline) was 2 of 6 and the survivor count [3] was 0 of 6.
In the case of `Cc1cccc(C)c1N=C(c1ccccc1)N(O)c1ccccc1`, the survivor count (T/C endpoint: mean survival time, dose: 15.0 mg/kg/injection, schedule: Q01DX001 (ip), vehicle: saline) was 1 of 6 and the survivor count (T/C endpoint: mean survival time, dose: 30.0 mg/kg/injection, schedule: Q01DX001 (ip), vehicle: saline) was 1 of 6.
In the case of `O=Cc1[nH]c(=S)[nH]c(=O)c1CCCc1ccccc1`, the survivor count (T/C endpoint: mean survival time, dose: 100.0 mg/kg/injection, schedule: Q04DX002 (ip), vehicle: Klucel (hydroxypropylcellulose) (HPC)) was 0 of 3.
In the case of `CC(C)(C)OC(=O)NC(CSC(c1ccccc1)(c1ccccc1)c1ccccc1)C(=O)O` (centres undefined), the survivor count [7] was 0 of 6 and the survivor count [8] was 0 of 6.
`C[N+](C)(C)CCC[n+]1ccc(CCn2ccc3ccccc32)cc1` was tested, and the survivor count [9] was 0 of 3 and the survivor count [10] was 0 of 3.
`C=C(NC(C)=O)C(=O)CCC(N)=O` was tested, and the survivor count (T/C endpoint: mean survival time, dose: 40.0 mg/kg/injection, schedule: Q04DX003 (ip), vehicle: saline) was 1 of 6.
For `CCCCCC[Se][Se]CCCCCC`, the survivor count (T/C endpoint: median survival time, dose: 25.0 mg/kg/injection, schedule: Q01DX009 (ip), vehicle: Klucel (hydroxypropylcellulose) (HPC)) was 5 of 6 and the survivor count (T/C endpoint: median survival time, dose: 50.0 mg/kg/injection, schedule: Q01DX009 (ip), vehicle: Klucel (hydroxypropylcellulose) (HPC)) was 0 of 6.
`O=C(O)C(S)C(S)C(=O)O.[As]` (centres undefined) was tested, and the survivor count [9] was 0 of 6 and the survivor count [10] was 0 of 6.
For `Nc1nc(Cl)nc2c1ncn2C1CC(O)C(CO)O1` (centres undefined), the T/C (T/C endpoint: median survival time, dose: 3.12 mg/kg/injection, schedule: Q01DX009 (ip), vehicle: Klucel (hydroxypropylcellulose) (HPC)) was 128 % of control, the T/C (T/C endpoint: median survival time, dose: 6.25 mg/kg/injection, schedule: Q01DX009 (ip), vehicle: Klucel (hydroxypropylcellulose) (HPC)) was 144 % of control and the survivor count (T/C endpoint: median survival time, dose: 120.0 mg/kg/injection, schedule: Q03HX009 (ip), vehicle: saline) was 0 of 6 on day 4.
For `N#CO`, the survivor count [11] was 6 of 6 and the survivor count [3] was 0 of 6.
For `CC1OC(OC2CC(O)(C(=O)CO)Cc3c(O)c4c(c(O)c32)C(=O)c2ccccc2C4=O)CC(N)C1O` (centres undefined), the T/C (T/C endpoint: mean survival time, dose: 0.06 mg/kg/injection, schedule: Q01DX009 (ip), vehicle: water) was 125 and 131 % of control, the T/C (T/C endpoint: mean survival time, dose: 0.13 mg/kg/injection, schedule: Q01DX009 (ip), vehicle: water) was 142 % of control and the T/C (T/C endpoint: mean survival time, dose: 0.25 mg/kg/injection, schedule: Q01DX009 (ip), vehicle: water) was 145 % of control. For the same molecule, the survivor count (T/C endpoint: mean survival time, dose: 1.0 mg/kg/injection, schedule: Q01DX009 (ip), vehicle: water) was 5 of 6.
With `Nc1nc(N)c2[nH]cnc2n1` the survivor count (T/C endpoint: mean survival time, dose: 200.0 mg/kg/injection, schedule: Q01DX005 (ip), vehicle: Klucel (hydroxypropylcellulose) (HPC)) was 0 of 6.
For `Nc1ccc(Cn2ccc3c4c(N)nc(N)nc4ccc32)cc1`, the T/C (T/C endpoint: mean survival time, dose: 2.5 mg/kg/injection, schedule: Q01DX009 (ip), vehicle: saline with Tween-80) was 106 (2×), 108, 116 % of control, the T/C (T/C endpoint: mean survival time, dose: 5.0 mg/kg/injection, schedule: Q01DX009 (ip), vehicle: saline with Tween-80) was 107, 112, 113, 115 [5 of 6 alive], 118 % of control and the T/C (T/C endpoint: mean survival time, dose: 10.0 mg/kg/injection, schedule: Q01DX009 (ip), vehicle: saline with Tween-80) was 112 (2×), 120, 124, 137 % of control. The T/C (T/C endpoint: mean survival time, dose: 20.0 mg/kg/injection, schedule: Q01DX009 (ip), vehicle: saline with Tween-80) was 118, 128, 131, 139, 159 % of control, the survivor count (T/C endpoint: mean survival time, dose: 40.0 mg/kg/injection, schedule: Q01DX009 (ip), vehicle: saline with Tween-80) was 1 of 6, 2 of 6, 3 of 6, 4 of 6 and the T/C (T/C endpoint: median survival time, dose: 10.0 mg/kg/injection, schedule: Q01DX009 (ip), vehicle: saline with Tween-80) was 126 % of control. For the same molecule, the T/C (T/C endpoint: median survival time, dose: 20.0 mg/kg/injection, schedule: Q01DX009 (ip), vehicle: saline with Tween-80) was 134 % of control and the survivor count (T/C endpoint: median survival time, dose: 40.0 mg/kg/injection, schedule: Q01DX009 (ip), vehicle: saline with Tween-80) was 2 of 6.
With `NC(=O)c1ccc[n+](Cc2ccccc2)c1` the survivor count [8] was 1 of 6.
For `CN(C)C(=O)c1cccc(COc2ccc(N)cc2Cl)c1`, the survivor count [4] was 6 of 6.
For `Cc1cccc(C2=N/C(=C\c3ccc(N(C)C)cc3)C(=O)O2)c1`, the survivor count [12] was 3 of 3.
With `CC1(C)COCN1COC1CCCCC1` the survivor count (T/C endpoint: mean survival time, dose: 400.0 mg/kg/injection, schedule: Q01DX009 (ip), vehicle: suspension in saline) was 0 of 10.
In the case of `O=C1C(NCC(O)CO)=C(N2CC2)C(=O)C(NCC(O)CO)=C1N1CC1` (centres undefined), the survivor count (T/C endpoint: mean survival time, dose: 2.5 mg/kg/injection, schedule: Q01DX009 (oral), vehicle: saline) was 3 of 6, the survivor count (T/C endpoint: mean survival time, dose: 5.0 mg/kg/injection, schedule: Q01DX009 (oral), vehicle: saline) was 3 of 5 and 6 of 6 and the survivor count (T/C endpoint: mean survival time, dose: 10.0 mg/kg/injection, schedule: Q01DX009 (oral), vehicle: saline) was 6 of 6. The T/C (T/C endpoint: median survival time, dose: 1.0 mg/kg/injection, schedule: Q01DX009 (ip), vehicle: saline) was 148 % of control and the survivor count (T/C endpoint: median survival time, dose: 16.0 mg/kg/injection, schedule: Q01DX009 (ip), vehicle: saline) was 9 of 10.
For `CCOC(=O)C(C#N)c1ccccc1` (centres undefined), the survivor count [13] was 0 of 3.
With `F[C](F)(F)[Hg][c]1ccccc1` the survivor count [12] was 0 of 3, the survivor count [14] was 0 of 3 and the survivor count [13] was 0 of 3.
With `CCCCOC(=O)C1C2CCC(O2)C1C(N)=O` (centres undefined) the survivor count [12] was 0 of 3, the survivor count [14] was 0 of 3 and the survivor count [13] was 0 of 3.
In the case of `CO[C@@]12[C@@H]3N[C@@H]3CN1C1=C(C(=O)C(N3CCOCC3)=C(C)C1=O)[C@@H]2COC(N)=O`, the T/C (T/C endpoint: mean survival time, dose: 1.5 mg/kg/injection, schedule: Q01DX001 (ip), vehicle: distilled water + Tween-80) was 135 % of control, the T/C (T/C endpoint: mean survival time, dose: 3.0 mg/kg/injection, schedule: Q01DX001 (ip), vehicle: distilled water + Tween-80) was 137 % of control and the T/C (T/C endpoint: mean survival time, dose: 6.0 mg/kg/injection, schedule: Q01DX001 (ip), vehicle: distilled water + Tween-80) was 125 and 147 % of control. For the same molecule, the T/C (T/C endpoint: mean survival time, dose: 12.0 mg/kg/injection, schedule: Q01DX001 (ip), vehicle: distilled water + Tween-80) was 147 % of control and the survivor count (T/C endpoint: mean survival time, dose: 24.0 mg/kg/injection, schedule: Q01DX001 (ip), vehicle: distilled water + Tween-80) was 5 of 6 and 6 of 6.
`COc1cc(CNC(=O)/C(C)=C/Cl)ccc1O` was tested, and the survivor count [4] was 6 of 6, the survivor count [5] was 3 of 6 and the survivor count [6] was 1 of 6.
For `Cc1c2cnccc2c(C)c2c1c1ccccc1n2CCNCCO`, the survivor count [11] was 3 of 6.
